{"sequences": {"note": "The chains behind the UniProt entries cited, without tags or fusion partners. Where a name states a change or a piece, a line headed by the entry shows the natural chain unless it says otherwise.", "UniProt Q9UI12": "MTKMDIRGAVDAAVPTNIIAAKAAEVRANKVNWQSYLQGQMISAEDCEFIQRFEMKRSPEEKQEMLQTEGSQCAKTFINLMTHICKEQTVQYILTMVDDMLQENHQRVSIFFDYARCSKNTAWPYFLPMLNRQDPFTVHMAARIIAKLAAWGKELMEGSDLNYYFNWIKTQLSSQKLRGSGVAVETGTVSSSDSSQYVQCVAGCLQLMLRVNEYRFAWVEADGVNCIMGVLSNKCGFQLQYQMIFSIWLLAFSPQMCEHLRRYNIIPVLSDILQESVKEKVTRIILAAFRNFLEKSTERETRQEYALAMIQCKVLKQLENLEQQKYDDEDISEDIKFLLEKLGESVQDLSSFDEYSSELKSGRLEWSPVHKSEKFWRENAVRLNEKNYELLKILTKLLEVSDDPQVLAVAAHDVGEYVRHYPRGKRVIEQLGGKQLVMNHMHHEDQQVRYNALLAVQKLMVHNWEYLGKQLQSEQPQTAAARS", "UniProt P36543": "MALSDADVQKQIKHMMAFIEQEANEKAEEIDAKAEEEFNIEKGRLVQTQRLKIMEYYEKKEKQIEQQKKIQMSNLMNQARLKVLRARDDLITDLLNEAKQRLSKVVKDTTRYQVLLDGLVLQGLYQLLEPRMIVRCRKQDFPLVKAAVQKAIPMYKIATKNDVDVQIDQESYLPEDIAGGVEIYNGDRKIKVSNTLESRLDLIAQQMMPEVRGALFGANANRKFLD"}, "source": "paper PMC3569449", "biological_target": "Human V-ATPase subunit H (non-tagged) (human) (UniProt Q9UI12)", "experiment": "condition: only with equimolar C1 (E1G1:C1:H 1:1:1); SEC; equimolar (1:1:1) mixture of E1G1, C1 and H; Superdex 200, conditions as for the other gel filtrations; both purified", "note": "No constants are given. Whether binding was seen depends on the method and setting."}
{"substance": "E1G1 heterodimer of human V-ATPase (subunits E1 and G1, co-expressed and co-purified) (from UniProt P36543 1-226; O75348 1-118) (complex)", "values": [{"measurement": "binding", "result": "no binding"}]}
